From PubChem BioAssay AID977630 (Broad Institute, 2014)
Out of some 1,600 compounds screened, fewer than 10 were called active. Not shown: some 48% with an inconclusive outcome. Only a part is listed here, and it is no random draw. Potency and affinity values are given separately.

Assay: growth inhibition of wild-type GFP E. coli, H38-humanized RFP comparator, dose response, H38 mutant RFP vs wild-type GFP, cherry-pick (AID 977630)
Details: mixed culture, 24 h; at 50 µM (top of the series)

Row | SMILES | activity change, negative = inhibition
1 | Nc1c(C(=O)NCCN2CCOCC2)c2nc3ccccc3nc2n1Cc1ccccc1 | inactive: -6.3
2 | O=C1CC(=O)N(Cc2ccccc2)C(=O)N1CCCCCCN1C(=O)CC(=O)N(Cc2ccccc2)C1=O | inactive: 7.35
